NP40-soluble protein abundance data for 15 targets are collected here from the supplement of paper PMC6411743.

Protein sequences, listed by entry. Tags and fused reporters are not part of them. Lines headed by an entry give the natural chain unless they say otherwise; changes in a name come on top.
UniProt O14907: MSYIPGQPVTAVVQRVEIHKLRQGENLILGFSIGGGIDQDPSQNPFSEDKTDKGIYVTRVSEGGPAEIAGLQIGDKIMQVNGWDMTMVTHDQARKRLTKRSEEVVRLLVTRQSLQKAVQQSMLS
UniProt O60353: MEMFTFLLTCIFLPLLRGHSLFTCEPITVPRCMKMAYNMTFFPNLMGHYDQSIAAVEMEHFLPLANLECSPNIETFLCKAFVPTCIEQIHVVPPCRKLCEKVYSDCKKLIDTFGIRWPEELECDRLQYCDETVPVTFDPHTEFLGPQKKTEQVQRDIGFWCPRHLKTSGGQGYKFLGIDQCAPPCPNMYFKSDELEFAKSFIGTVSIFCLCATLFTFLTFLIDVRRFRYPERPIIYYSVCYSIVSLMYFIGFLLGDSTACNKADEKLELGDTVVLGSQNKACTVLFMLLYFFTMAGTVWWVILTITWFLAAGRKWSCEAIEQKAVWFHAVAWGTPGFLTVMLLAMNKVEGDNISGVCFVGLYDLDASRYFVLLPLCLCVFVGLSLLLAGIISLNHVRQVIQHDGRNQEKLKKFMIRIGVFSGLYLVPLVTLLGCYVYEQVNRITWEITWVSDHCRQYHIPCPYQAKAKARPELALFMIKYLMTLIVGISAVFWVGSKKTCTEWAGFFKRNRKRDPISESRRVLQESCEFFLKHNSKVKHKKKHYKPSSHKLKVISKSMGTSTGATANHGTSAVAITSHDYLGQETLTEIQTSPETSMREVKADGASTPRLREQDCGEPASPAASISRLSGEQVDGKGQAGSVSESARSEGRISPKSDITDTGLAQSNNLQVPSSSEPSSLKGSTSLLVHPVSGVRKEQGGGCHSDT
UniProt O43159: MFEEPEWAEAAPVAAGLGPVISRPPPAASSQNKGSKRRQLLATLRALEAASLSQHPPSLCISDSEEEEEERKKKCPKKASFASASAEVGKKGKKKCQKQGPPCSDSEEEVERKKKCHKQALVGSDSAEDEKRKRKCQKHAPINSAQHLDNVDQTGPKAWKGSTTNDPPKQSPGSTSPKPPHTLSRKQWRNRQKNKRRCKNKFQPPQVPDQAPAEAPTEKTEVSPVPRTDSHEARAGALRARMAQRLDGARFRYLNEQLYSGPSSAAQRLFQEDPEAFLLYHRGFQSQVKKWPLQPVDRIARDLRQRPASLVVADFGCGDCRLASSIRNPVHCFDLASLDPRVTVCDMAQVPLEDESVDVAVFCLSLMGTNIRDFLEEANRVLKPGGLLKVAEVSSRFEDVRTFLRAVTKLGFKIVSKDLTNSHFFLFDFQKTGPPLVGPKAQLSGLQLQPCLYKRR
UniProt Q8TBC3: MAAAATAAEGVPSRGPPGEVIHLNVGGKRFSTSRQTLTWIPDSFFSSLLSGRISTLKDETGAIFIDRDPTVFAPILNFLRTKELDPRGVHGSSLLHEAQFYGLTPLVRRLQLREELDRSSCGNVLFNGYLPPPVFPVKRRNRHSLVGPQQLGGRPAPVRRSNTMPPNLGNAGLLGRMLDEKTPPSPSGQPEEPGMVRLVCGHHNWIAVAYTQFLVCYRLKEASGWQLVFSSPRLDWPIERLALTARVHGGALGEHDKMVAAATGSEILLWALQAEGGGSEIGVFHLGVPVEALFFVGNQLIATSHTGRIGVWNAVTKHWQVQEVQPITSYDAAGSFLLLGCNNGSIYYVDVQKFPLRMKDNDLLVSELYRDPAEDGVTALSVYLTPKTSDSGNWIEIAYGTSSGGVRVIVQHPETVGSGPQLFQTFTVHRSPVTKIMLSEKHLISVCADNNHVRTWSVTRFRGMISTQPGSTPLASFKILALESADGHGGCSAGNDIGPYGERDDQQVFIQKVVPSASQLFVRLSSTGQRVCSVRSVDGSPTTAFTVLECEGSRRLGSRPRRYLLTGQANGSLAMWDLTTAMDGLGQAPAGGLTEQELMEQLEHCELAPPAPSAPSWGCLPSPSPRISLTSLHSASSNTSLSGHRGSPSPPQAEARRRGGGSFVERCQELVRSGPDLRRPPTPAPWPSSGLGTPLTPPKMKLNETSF
UniProt O43829: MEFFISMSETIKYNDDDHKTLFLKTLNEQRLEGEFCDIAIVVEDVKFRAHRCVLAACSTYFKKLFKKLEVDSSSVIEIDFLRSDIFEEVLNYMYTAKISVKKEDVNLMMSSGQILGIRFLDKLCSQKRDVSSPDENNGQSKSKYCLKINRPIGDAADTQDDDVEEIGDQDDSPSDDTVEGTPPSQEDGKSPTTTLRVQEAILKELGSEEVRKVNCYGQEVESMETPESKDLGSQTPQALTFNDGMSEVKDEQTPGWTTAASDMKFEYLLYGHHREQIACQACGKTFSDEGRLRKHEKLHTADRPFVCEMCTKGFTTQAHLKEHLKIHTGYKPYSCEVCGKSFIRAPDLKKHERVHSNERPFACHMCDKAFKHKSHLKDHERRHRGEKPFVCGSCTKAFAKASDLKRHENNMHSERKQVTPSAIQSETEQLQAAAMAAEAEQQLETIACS
UniProt O15020, whole entry: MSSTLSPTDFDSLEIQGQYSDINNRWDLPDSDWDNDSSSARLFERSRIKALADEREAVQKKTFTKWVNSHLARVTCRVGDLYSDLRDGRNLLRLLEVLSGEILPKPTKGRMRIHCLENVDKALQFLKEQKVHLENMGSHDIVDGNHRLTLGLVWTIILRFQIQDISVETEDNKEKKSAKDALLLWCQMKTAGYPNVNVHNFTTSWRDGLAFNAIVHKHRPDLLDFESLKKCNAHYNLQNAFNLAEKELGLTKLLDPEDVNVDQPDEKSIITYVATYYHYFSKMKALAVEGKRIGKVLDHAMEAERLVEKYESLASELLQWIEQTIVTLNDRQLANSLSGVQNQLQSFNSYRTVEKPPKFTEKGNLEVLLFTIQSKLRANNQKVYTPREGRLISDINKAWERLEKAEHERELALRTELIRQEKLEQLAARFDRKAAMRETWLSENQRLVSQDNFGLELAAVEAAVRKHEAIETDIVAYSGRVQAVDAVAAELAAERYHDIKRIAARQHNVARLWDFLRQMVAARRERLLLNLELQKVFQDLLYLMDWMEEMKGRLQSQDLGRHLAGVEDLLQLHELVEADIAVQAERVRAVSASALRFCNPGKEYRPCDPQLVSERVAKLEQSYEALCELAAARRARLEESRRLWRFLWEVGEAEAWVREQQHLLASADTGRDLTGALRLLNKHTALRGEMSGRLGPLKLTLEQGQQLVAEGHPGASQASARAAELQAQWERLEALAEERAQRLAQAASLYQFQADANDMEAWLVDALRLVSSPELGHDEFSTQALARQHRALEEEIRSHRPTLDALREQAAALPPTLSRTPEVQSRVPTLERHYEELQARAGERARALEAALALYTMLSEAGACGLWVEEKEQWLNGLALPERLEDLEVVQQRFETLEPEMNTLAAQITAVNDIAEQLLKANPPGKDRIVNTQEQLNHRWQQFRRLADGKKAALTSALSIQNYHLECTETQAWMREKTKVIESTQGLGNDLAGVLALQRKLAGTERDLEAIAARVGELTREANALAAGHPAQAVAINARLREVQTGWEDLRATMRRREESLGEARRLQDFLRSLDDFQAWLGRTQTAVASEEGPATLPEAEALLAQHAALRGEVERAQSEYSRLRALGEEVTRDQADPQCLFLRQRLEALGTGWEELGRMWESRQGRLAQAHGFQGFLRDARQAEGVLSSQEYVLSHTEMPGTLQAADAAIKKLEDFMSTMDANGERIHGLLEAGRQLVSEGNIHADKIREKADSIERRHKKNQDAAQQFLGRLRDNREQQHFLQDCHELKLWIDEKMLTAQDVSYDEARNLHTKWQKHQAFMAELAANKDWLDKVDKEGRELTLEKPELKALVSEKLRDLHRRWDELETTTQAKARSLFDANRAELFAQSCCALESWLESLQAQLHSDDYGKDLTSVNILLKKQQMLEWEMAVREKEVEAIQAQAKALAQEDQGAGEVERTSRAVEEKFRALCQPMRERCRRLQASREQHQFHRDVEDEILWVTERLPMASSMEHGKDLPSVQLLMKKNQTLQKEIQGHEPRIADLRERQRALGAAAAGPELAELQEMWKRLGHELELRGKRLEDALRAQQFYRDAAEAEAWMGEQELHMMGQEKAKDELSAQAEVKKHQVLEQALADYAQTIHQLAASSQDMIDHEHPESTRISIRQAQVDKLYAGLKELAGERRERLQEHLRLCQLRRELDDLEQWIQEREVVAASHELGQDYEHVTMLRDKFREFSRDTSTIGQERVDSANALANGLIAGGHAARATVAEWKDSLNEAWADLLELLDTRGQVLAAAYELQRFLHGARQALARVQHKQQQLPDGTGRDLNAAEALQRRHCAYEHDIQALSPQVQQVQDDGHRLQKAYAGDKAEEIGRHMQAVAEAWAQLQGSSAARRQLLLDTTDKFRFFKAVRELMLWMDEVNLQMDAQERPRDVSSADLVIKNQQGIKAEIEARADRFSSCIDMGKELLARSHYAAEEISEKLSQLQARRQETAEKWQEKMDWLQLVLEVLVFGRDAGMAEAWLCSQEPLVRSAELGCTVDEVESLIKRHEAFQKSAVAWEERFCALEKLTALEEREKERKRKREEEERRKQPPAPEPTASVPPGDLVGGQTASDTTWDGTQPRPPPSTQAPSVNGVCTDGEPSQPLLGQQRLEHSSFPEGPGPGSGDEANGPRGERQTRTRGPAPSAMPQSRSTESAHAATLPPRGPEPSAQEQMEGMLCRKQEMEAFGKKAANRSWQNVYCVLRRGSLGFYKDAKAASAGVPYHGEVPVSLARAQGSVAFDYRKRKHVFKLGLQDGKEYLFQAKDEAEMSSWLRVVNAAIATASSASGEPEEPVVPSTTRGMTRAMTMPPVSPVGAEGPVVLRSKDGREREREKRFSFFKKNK
UniProt O15400: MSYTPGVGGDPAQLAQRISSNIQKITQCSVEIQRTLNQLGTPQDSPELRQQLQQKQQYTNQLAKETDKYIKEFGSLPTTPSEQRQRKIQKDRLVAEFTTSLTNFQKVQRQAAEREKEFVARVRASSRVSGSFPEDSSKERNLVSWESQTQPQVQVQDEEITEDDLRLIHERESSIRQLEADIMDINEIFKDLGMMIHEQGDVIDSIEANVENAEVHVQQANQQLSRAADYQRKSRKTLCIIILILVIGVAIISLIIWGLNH
UniProt O43752: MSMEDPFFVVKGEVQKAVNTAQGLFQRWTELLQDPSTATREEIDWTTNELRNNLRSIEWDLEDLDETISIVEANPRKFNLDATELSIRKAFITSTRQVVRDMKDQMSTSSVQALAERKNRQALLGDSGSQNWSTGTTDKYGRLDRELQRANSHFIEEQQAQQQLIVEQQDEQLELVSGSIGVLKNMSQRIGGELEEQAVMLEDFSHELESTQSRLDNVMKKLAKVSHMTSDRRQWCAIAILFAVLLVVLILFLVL
UniProt O60331: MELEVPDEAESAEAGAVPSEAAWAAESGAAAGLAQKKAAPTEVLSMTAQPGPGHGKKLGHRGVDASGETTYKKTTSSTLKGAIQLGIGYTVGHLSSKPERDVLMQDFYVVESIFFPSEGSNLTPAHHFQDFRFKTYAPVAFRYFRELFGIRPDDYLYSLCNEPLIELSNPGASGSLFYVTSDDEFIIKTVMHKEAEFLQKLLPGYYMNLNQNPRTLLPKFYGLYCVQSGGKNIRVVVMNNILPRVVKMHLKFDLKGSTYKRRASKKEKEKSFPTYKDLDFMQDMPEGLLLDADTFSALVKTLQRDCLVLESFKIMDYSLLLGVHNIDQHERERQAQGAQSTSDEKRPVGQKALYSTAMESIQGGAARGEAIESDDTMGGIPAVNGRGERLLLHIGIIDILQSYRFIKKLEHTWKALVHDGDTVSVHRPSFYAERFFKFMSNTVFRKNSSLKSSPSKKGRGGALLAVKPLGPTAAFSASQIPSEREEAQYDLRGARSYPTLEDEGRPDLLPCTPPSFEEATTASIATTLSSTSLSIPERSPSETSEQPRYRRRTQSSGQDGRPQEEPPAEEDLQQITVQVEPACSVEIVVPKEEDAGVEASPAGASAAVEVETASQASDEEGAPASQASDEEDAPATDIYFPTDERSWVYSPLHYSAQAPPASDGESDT
UniProt O14732: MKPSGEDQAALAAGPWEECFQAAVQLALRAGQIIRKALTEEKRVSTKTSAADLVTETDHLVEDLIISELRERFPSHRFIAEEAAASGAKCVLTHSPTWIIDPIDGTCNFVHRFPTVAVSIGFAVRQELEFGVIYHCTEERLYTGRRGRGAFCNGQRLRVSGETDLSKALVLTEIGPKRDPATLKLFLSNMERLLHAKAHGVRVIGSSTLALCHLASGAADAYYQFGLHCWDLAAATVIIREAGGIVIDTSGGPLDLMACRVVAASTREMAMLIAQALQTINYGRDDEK
UniProt O00399, whole entry: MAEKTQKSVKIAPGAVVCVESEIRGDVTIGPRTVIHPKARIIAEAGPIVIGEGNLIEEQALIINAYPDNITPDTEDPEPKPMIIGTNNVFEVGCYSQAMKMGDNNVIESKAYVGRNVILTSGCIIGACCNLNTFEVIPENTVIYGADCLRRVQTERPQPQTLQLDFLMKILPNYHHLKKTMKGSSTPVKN

± gives the standard deviation of the averaged measurements. This is a selection; strong and weak results do not stand in their true shares.

Compound in this test: Nc1ncnc2c1ncn2[C@@H]1O[C@H](COP(=O)(O)OP(=O)(O)OP(=O)(O)O)[C@@H](O)[C@H]1O [adenosine triphosphate]
Description: NP40-soluble protein abundance relative to vehicle (solubility fold change) (ratio); higher = more soluble protein in presence of ATP. The essentials: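 Jurkat crude lysate (Dounce-homogenised) was treated with eight concentrations from 0.1 to 10 mM for 10 min at room temperature, then 3 min at 37 °C. It was solubilised with 0.8% NP40 and benzonase (60 min, 4 °C) and ultracentrifuged, and the supernatant was TMT-labelled for LC-MS/MS. Intensities were vsn-normalised, and the value is the fold change against the NP40-processed vehicle per replicate, from three independent experiments.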

For the target TAX1BP3 (UniProt O14907), the NP40-soluble protein abundance runs as follows: (concentration: 1mM) 0.947 ± 0.018; (concentration: 2mM) 0.948 ± 0.015; (concentration: 4mM) 0.961 ± 0.033; (concentration: 6mM) 0.943 ± 0.013; (concentration: 8mM) 0.95 ± 0.054; (concentration: 10mM) 0.925 ± 0.026.
With WASL (UniProt O00401), the NP40-soluble protein abundance was 0.98 ± 0.038 (concentration: 1mM); 0.919 ± 0.084 (concentration: 2mM); 0.963 ± 0.1 (concentration: 4mM); 0.952 ± 0.034 (concentration: 6mM); 0.917 ± 0.015 (concentration: 8mM); 0.991 ± 0.069 (concentration: 10mM).
Consider UniProt O60353 and related entries, for which the NP40-soluble protein abundance worked out at 0.975 ± 0.092 (concentration: 1mM); 0.85 ± 0.014 (concentration: 2mM); 0.956 ± 0.089 (concentration: 4mM); 0.996 ± 0.097 (concentration: 6mM); 0.952 ± 0.074 (concentration: 8mM); 0.95 ± 0.02 (concentration: 10mM).
For UniProt O43159, the NP40-soluble protein abundance (concentration: 1mM) turned out to be 1.07 ± 0.076; the NP40-soluble protein abundance (concentration: 2mM) came to 1.1 ± 0.025; the NP40-soluble protein abundance (concentration: 4mM) is 1.27 ± 0.049; the NP40-soluble protein abundance (concentration: 6mM) was 1.27 ± 0.12; the NP40-soluble protein abundance (concentration: 8mM) worked out at 1.2 ± 0.026; the NP40-soluble protein abundance (concentration: 10mM) turned out to be 1.31 ± 0.042.
With “M0R2P6 and related entries (UniProt Q8TBC3)”, the NP40-soluble protein abundance runs as follows: (concentration: 1mM) 1.19 ± 0.023; (concentration: 2mM) 1.18 ± 0.072; (concentration: 4mM) 1.26 ± 0.16; (concentration: 6mM) 1.19 ± 0.065; (concentration: 8mM) 1.19 ± 0.095; (concentration: 10mM) 1.2 ± 0.15.
As to ARPC5 (UniProt O15511), the NP40-soluble protein abundance (concentration: 1mM) is 0.928 ± 0.13; the NP40-soluble protein abundance (concentration: 2mM) was 0.908 ± 0.13; the NP40-soluble protein abundance (concentration: 4mM) was 0.886 ± 0.1; the NP40-soluble protein abundance (concentration: 6mM) turned out to be 0.95 ± 0.15; the NP40-soluble protein abundance (concentration: 8mM) was 0.889 ± 0.066; the NP40-soluble protein abundance (concentration: 10mM) is 0.812 ± 0.12.
UniProt O43829: the NP40-soluble protein abundance (concentration: 1mM) turned out to be 1.05 ± 0.041; the NP40-soluble protein abundance (concentration: 2mM) is 1.06 ± 0.034; the NP40-soluble protein abundance (concentration: 4mM) turned out to be 1.02 ± 0.08; the NP40-soluble protein abundance (concentration: 6mM) amounted to 1.07 ± 0.026; the NP40-soluble protein abundance (concentration: 8mM) was determined as 1.04 ± 0.043; the NP40-soluble protein abundance (concentration: 10mM) is 1.06 ± 0.026.
As to SPTBN2 (UniProt O15020), the NP40-soluble protein abundance runs as follows: (concentration: 1mM) 0.953 ± 0.021; (concentration: 2mM) 0.975 ± 0.018; (concentration: 4mM) 0.9876 ± 0.0061; (concentration: 6mM) 1.014 ± 0.0027; (concentration: 8mM) 0.9914 ± 0.0086; (concentration: 10mM) 1.01 ± 0.014.
In the case of UniProt O15400 and related entries, the NP40-soluble protein abundance was 0.912 ± 0.067 (concentration: 1mM); 0.938 ± 0.028 (concentration: 2mM); 0.944 ± 0.014 (concentration: 4mM); 0.983 ± 0.033 (concentration: 6mM); 0.909 ± 0.049 (concentration: 8mM); 0.874 ± 0.067 (concentration: 10mM).
For the target ANKRD28 (UniProt O15084), the NP40-soluble protein abundance is, setting by setting: (concentration: 1mM) 1.04 ± 0.1; (concentration: 2mM) 0.988 ± 0.03; (concentration: 4mM) 0.992 ± 0.051; (concentration: 6mM) 0.958 ± 0.036; (concentration: 8mM) 1.02 ± 0.021; (concentration: 10mM) 0.998 ± 0.037.
In the case of STX6 (UniProt O43752), the NP40-soluble protein abundance is, setting by setting: (concentration: 1mM) 0.973 ± 0.049; (concentration: 2mM) 0.97 ± 0.051; (concentration: 4mM) 0.989 ± 0.032; (concentration: 6mM) 0.943 ± 0.042; (concentration: 8mM) 0.962 ± 0.01; (concentration: 10mM) 0.944 ± 0.044.
In the case of UniProt O60331 and related entries, the NP40-soluble protein abundance reads like this: (concentration: 1mM) 1.04 ± 0.16; (concentration: 2mM) 1.16 ± 0.14; (concentration: 4mM) 1.05 ± 0.081; (concentration: 6mM) 1.14 ± 0.2; (concentration: 8mM) 0.981 ± 0.033; (concentration: 10mM) 1.05 ± 0.1.
As to UniProt O14732 and related entries, the NP40-soluble protein abundance is, setting by setting: (concentration: 1mM) 0.973 ± 0.1; (concentration: 2mM) 0.98 ± 0.0035; (concentration: 4mM) 1 ± 0.046; (concentration: 6mM) 0.911 ± 0.095; (concentration: 8mM) 0.99 ± 0.019; (concentration: 10mM) 0.983 ± 0.035.
For UniProt O15042 and related entries, the NP40-soluble protein abundance is, setting by setting: (concentration: 1mM) 1.15 ± 0.055; (concentration: 2mM) 1.16 ± 0.046; (concentration: 4mM) 1.2 ± 0.062; (concentration: 6mM) 1.26 ± 0.087; (concentration: 8mM) 1.29 ± 0.071; (concentration: 10mM) 1.33 ± 0.072.
With DCTN6 (UniProt O00399), the NP40-soluble protein abundance (concentration: 1mM) came out at 0.992 ± 0.017; the NP40-soluble protein abundance (concentration: 2mM) came to 0.956 ± 0.022; the NP40-soluble protein abundance (concentration: 4mM) was determined as 0.931 ± 0.042; the NP40-soluble protein abundance (concentration: 6mM) is 0.985 ± 0.061; the NP40-soluble protein abundance (concentration: 8mM) came out at 0.949 ± 0.05; the NP40-soluble protein abundance (concentration: 10mM) was found to be 0.948 ± 0.065.
